PubChem BioAssay AID1671195 – Yale University, 2021
In all, the deposit lists about 22,000 reagents; below is a random part of them. In the full data, about 1,510 (6.9%) were called active. 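Active includes knockdowns raising or lowering LDL uptake; positive z-scores mean more uptake, negative mean less.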

- Assay: 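Genes whose knockdown alters LDL uptake in liver cancer cells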 (primary screen)
- System: human Huh7 hepatoma cells
- Reagents: siRNA pool against human genes, 18 nM
- Timing: about 2 to 2.5 days of knockdown, then 8 h LDL uptake
- Conditions: DiI-labelled LDL at 30 µg/ml for 8 h, in lipoprotein-deficient serum medium
- Read-out: 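Fluorescent LDL signal imaged in cells, scaled to the plate median, robust z-score for each replicate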
- Reading the numbers: robust z-score: higher = more LDL uptake after knockdown
- Rule for the call: 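a gene counts as active if at least two replicate z-scores exceed ±2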

{"target gene": "TRHDE-AS1 (TRHDE antisense RNA 1)", "robust z-score, replicate 1": 0.0738, "robust z-score, replicate 2": 0.204, "robust z-score, replicate 3": 0.303, "activity call": "inactive"}
{"target gene": "COBLP1 (COBL pseudogene 1)", "robust z-score, replicate 1": -0.541, "robust z-score, replicate 2": 1.21, "robust z-score, replicate 3": 0.415, "activity call": "inactive"}
{"target gene": "KRT24 (keratin 24)", "robust z-score, replicate 1": 0.76, "robust z-score, replicate 2": 0.27, "robust z-score, replicate 3": 0.466, "activity call": "inactive"}
{"target gene": "ELAC2 (elaC ribonuclease Z 2)", "robust z-score, replicate 1": -0.382, "robust z-score, replicate 2": -0.0646, "robust z-score, replicate 3": -0.578, "activity call": "inactive"}
{"target gene": "PAPOLG (poly(A) polymerase gamma)", "robust z-score, replicate 1": 3.87, "robust z-score, replicate 2": 2.42, "robust z-score, replicate 3": 3.37, "activity call": "active"}
{"target gene": "TFDP1 (transcription factor Dp-1)", "robust z-score, replicate 1": -1.18, "robust z-score, replicate 2": -0.949, "robust z-score, replicate 3": -1.07, "activity call": "inactive"}
{"target gene": "OIT3 (oncoprotein induced transcript 3)", "robust z-score, replicate 1": 0.179, "robust z-score, replicate 2": -0.297, "robust z-score, replicate 3": 0.518, "activity call": "inactive"}
{"target gene": "ADGRG5 (adhesion G protein-coupled receptor G5)", "robust z-score, replicate 1": 1.31, "robust z-score, replicate 2": 0.348, "robust z-score, replicate 3": 1.12, "activity call": "inactive"}
{"target gene": "STMN4 (stathmin 4)", "robust z-score, replicate 1": -1.54, "robust z-score, replicate 2": -1.26, "robust z-score, replicate 3": -1.06, "activity call": "inactive"}
{"target gene": "COIL (coilin)", "robust z-score, replicate 1": -1.67, "robust z-score, replicate 2": -0.453, "robust z-score, replicate 3": 0.522, "activity call": "inactive"}
{"target gene": "LOC155060 (AI894139 pseudogene)", "robust z-score, replicate 1": -0.973, "robust z-score, replicate 2": 0.717, "robust z-score, replicate 3": -1.04, "activity call": "inactive"}
{"target gene": "ICOSLG (inducible T cell costimulator ligand)", "robust z-score, replicate 1": 0.591, "robust z-score, replicate 2": 0.0497, "robust z-score, replicate 3": -0.29, "activity call": "inactive"}
{"target gene": "RNGTT (RNA guanylyltransferase and 5'-phosphatase)", "robust z-score, replicate 1": 1.36, "robust z-score, replicate 2": 1.24, "robust z-score, replicate 3": 0.959, "activity call": "inactive"}
{"target gene": "SZRD1 (SUZ RNA binding domain containing 1)", "robust z-score, replicate 1": -0.89, "robust z-score, replicate 2": 0.0272, "robust z-score, replicate 3": 1.46, "activity call": "inactive"}
{"target gene": "PIK3R4 (phosphoinositide-3-kinase regulatory subunit 4)", "robust z-score, replicate 1": -0.493, "robust z-score, replicate 2": -0.538, "robust z-score, replicate 3": -0.89, "activity call": "inactive"}
{"target gene": "MRPS6 (mitochondrial ribosomal protein S6)", "robust z-score, replicate 1": 0.2, "robust z-score, replicate 2": 0.345, "robust z-score, replicate 3": 0.238, "activity call": "inactive"}
{"target gene": "RGS22 (regulator of G protein signaling 22)", "robust z-score, replicate 1": 0.587, "robust z-score, replicate 2": -2.11, "robust z-score, replicate 3": 0.628, "activity call": "inactive"}
{"target gene": "XRCC3 (X-ray repair cross complementing 3)", "robust z-score, replicate 1": 2.22, "robust z-score, replicate 2": 2.32, "robust z-score, replicate 3": 2.5, "activity call": "active"}
{"target gene": "CNNM1", "robust z-score, replicate 1": 1.82, "robust z-score, replicate 2": -0.362, "robust z-score, replicate 3": -0.495, "activity call": "inactive"}
{"target gene": "RPL32P7 (ribosomal protein L32 pseudogene 7)", "robust z-score, replicate 1": -1.78, "robust z-score, replicate 2": -2.23, "robust z-score, replicate 3": -1.95, "activity call": "active"}
{"target gene": "ST6GALNAC5 (ST6 N-acetylgalactosaminide alpha-2,6-sialyltransferase 5)", "robust z-score, replicate 1": -2.19, "robust z-score, replicate 2": -2.1, "robust z-score, replicate 3": -1.97, "activity call": "active"}
{"target gene": "CMPK2 (cytidine/uridine monophosphate kinase 2)", "robust z-score, replicate 1": -0.486, "robust z-score, replicate 2": -0.0118, "robust z-score, replicate 3": -1.03, "activity call": "inactive"}
{"target gene": "PROSER1 (proline and serine rich 1)", "robust z-score, replicate 1": -0.46, "robust z-score, replicate 2": -1.03, "robust z-score, replicate 3": -1.37, "activity call": "inactive"}
{"target gene": "CHRNA10 (cholinergic receptor nicotinic alpha 10 subunit)", "robust z-score, replicate 1": 1.48, "robust z-score, replicate 2": 1.49, "robust z-score, replicate 3": 1.61, "activity call": "inactive"}
{"target gene": "MAGEA13P (MAGE family member A13, pseudogene)", "robust z-score, replicate 1": 0.588, "robust z-score, replicate 2": 0.367, "robust z-score, replicate 3": 2.71, "activity call": "inactive"}
{"target gene": "TOM1L2 (target of myb1 like 2 membrane trafficking protein)", "robust z-score, replicate 1": -0.208, "robust z-score, replicate 2": -0.344, "robust z-score, replicate 3": 0.402, "activity call": "inactive"}
{"target gene": "SLC1A4", "robust z-score, replicate 1": -1.59, "robust z-score, replicate 2": -1.68, "robust z-score, replicate 3": -1.68, "activity call": "inactive"}
{"target gene": "SLC12A5", "robust z-score, replicate 1": -1.27, "robust z-score, replicate 2": -0.679, "robust z-score, replicate 3": -0.95, "activity call": "inactive"}
{"target gene": "RAN (RAN, member RAS oncogene family)", "robust z-score, replicate 1": 1.07, "robust z-score, replicate 2": -0.038, "robust z-score, replicate 3": 1.56, "activity call": "inactive"}
{"target gene": "BTN2A3P (butyrophilin subfamily 2 member A3, pseudogene)", "robust z-score, replicate 1": 0.345, "robust z-score, replicate 2": 0.0919, "robust z-score, replicate 3": 0.325, "activity call": "inactive"}

In a second layout: entries from further up.
ADGRG5 (adhesion G protein-coupled receptor G5): robust z-score, replicate 1 = 1.31; robust z-score, replicate 2 = 0.348; robust z-score, replicate 3 = 1.12; activity call = inactive
STMN4 (stathmin 4): robust z-score, replicate 1 = -1.54; robust z-score, replicate 2 = -1.26; robust z-score, replicate 3 = -1.06; activity call = inactive
COIL (coilin): robust z-score, replicate 1 = -1.67; robust z-score, replicate 2 = -0.453; robust z-score, replicate 3 = 0.522; activity call = inactive
LOC155060 (AI894139 pseudogene): robust z-score, replicate 1 = -0.973; robust z-score, replicate 2 = 0.717; robust z-score, replicate 3 = -1.04; activity call = inactive
ICOSLG (inducible T cell costimulator ligand): robust z-score, replicate 1 = 0.591; robust z-score, replicate 2 = 0.0497; robust z-score, replicate 3 = -0.29; activity call = inactive
